Measured values published in patent US8541460B2, “PDK-1/Akt signaling inhibitors” (The Ohio State University, priority 2003, dated 2013).

Tests used:
UACC-62 = test: NCI DTP cell line screen (SRB), Melanoma; type: cell-based
SW-620 = test: NCI DTP cell line screen (SRB), Colon Cancer; type: cell-based
Experimental: (§1) Screening of compounds 70 and 71 against several cancer cell lines The human tumor cell lines of the cancer screening panel are grown in RPMI 1640 medium containing 5% fetal bovine serum and 2 mM L-glutamine. For a typical screening experiment, cells are inoculated into 96 well microtiter plates in 100 μL at plating densities ranging from 5,000 to 40,000 cells/well depending on the doubling time of individual cell lines. After cell inoculation, the microtiter plates are incubated at 37° C., 5% CO2, 95% air and 100% relative humidity for 24 h prior to addition of experimental drugs.
(§2) After 24 h, two plates of each cell line are fixed in situ with TCA, to represent a measurement of the cell population for each cell line at the time of drug addition (Tz). Experimental drugs are solubilized in dimethyl sulfoxide at 400-fold the desired final maximum test concentration and stored frozen prior to use. At the time of drug addition, an aliquot of frozen concentrate is thawed and diluted to twice the desired final maximum test concentration with complete medium containing 50 μg/ml gentamicin. Additional four, 10-fold or ½ log serial dilutions are made to provide a total of five drug concentrations plus control. Aliquots of 100 μl of these different drug dilutions are added to the appropriate microtiter wells already containing 100 μl of medium, resulting in the required final drug concentrations.
(§3) Following drug addition, the plates are incubated for an additional 48 h at 37° C., 5% CO2, 95% air, and 100% relative humidity. For adherent cells, the assay is terminated by the addition of cold TCA. Cells are fixed in situ by the gentle addition of 50 μl of cold 50% (w/v) TCA (final concentration, 10% TCA) and incubated for 60 minutes at 4° C. The supernatant is discarded, and the plates are washed five times with tap water and air dried. Sulforhodamine B (SRB) solution (100 μl) at 0.4% (w/v) in 1% acetic acid is added to each well, and plates are incubated for 10 minutes at room temperature. After staining, unbound dye is removed by washing five times with 1% acetic acid and the plates are air dried. Bound stain is subsequently solubilized with 10 mM trizma base, and the absorbance is read on an automated plate reader at a wavelength of 515 nm. For suspension cells, the methodology is the same except that the assay is terminated by fixing settled cells at the bottom of the wells by gently adding 50 μl of 80% TCA (final concentration, 16% TCA). Using the seven absorbance measurements [time zero, (Tz), control growth, (C), and test growth in the presence of drug at the five concentration levels (Ti)], the percentage growth is calculated at each of the drug concentrations levels. Percentage growth inhibition is calculated as: [(Ti−Tz)/(C−Tz)]×100 for concentrations for which Ti>/=Tz [(Ti−Tz)/Tz]×100 for concentrations for which Ti<Tz
(§4) Three dose response parameters are calculated for each experimental agent. […] The drug concentration resulting in total growth inhibition (TGI) is calculated from Ti=Tz. […] Values are calculated for each of these three parameters if the level of activity is reached; however, if the effect is not reached or is exceeded, the value for that parameter is expressed as greater or less than the maximum or minimum concentration tested.
(§5) The methods described were used to test compounds 70 and 71 on a panel of sixty cell lines under a screening service provided by the Developmental Therapeutics Program at the National Institutes of Health. Shown in FIG. 1C are 1, RPMI-8226 leukemia cells; 2; NCI-H322M non-small cell lung cancer cells; 3, HT29 colon cancer cells; 4, U251 CNS cancer cells; 5, SK-MEL-28 melanoma cancer cells; 6, SK-OV-3 ovarian cancer cells; 7, RXF 393 renal cancer cells; 8, PC-3 prostate cancer cells; 9, MDA-MB-231 breast cancer cells.

HCT-116 = test: NCI DTP cell line screen (SRB), Colon Cancer; type: cell-based
Experimental: as §1, §2, §3, §4, §5

EKVX = test: NCI DTP cell line screen (SRB), Non-Small Cell Lung Cancer; type: cell-based
Experimental: as §1, §2, §3, §4, §5

NCI-H460 = test: as above; type: cell-based
Experimental: as §1, §2, §3, §4, §5

NCI-H23 = test: as above; type: cell-based
Experimental: as §1, §2, §3, §4, §5

CCRF-CEM = test: NCI DTP cell line screen (SRB), Leukemia; type: cell-based
MCF7 = test: NCI DTP cell line screen (SRB), Breast Cancer; type: cell-based, human
Experimental: as §1, §2, §3, §4
The methods described were used to test compounds 70 and 71 on a panel of sixty cell lines under a screening service provided by the Developmental Therapeutics Program at the National Institutes of Health. […]

ACHN = test: NCI DTP cell line screen (SRB), Renal Cancer; type: cell-based, human
Experimental: as §1, §2, §3, §4, §5

UO-31 = test: NCI DTP cell line screen (SRB), Renal Cancer; type: cell-based, human
Experimental: as §1, §2, §3, §4, §5

M14 = test: NCI DTP cell line screen (SRB), Melanoma; type: cell-based
Experimental: as §1, §2, §3, §4, §5

LOX IMVI = test: NCI DTP cell line screen (SRB), Melanoma; type: cell-based
Experimental: as §1, §2, §3, §4, §5

SK-MEL-28 = test: NCI DTP cell line screen (SRB), Melanoma; type: cell-based
Experimental: as §1, §2, §3, §4, §5

NCC(=O)Nc1ccc(-n2nc(C(F)(F)F)cc2-c2ccc3c(ccc4ccccc43)c2)cc1 [Compound 70, 2-Amino-N-{4-[5-(2-phenanthrenyl)-3-(trifluoromethyl)-1H-pyrazol-1-yl]-phenyl}-acetamide]
Mean Optical Densities (UACC-62; Log10 Concentration −4.0): 0.364 | Mean Optical Densities (UACC-62; Log10 Concentration −5.0): 0.137 | Mean Optical Densities (UACC-62; Log10 Concentration −6.0): 1.407 | Mean Optical Densities (UACC-62; Log10 Concentration −7.0): 1.546 | Mean Optical Densities (UACC-62; Log10 Concentration −8.0): 1.649 | Mean Optical Densities (SW-620; Log10 Concentration −4.0): 0.136 | Mean Optical Densities (SW-620; Log10 Concentration −5.0): 0.127 | Mean Optical Densities (SW-620; Log10 Concentration −6.0): 0.736 | Mean Optical Densities (SW-620; Log10 Concentration −7.0): 1.198 | Mean Optical Densities (SW-620; Log10 Concentration −8.0): 1.197 | Mean Optical Densities (HCT-116; Log10 Concentration −4.0): 0.146 | Mean Optical Densities (HCT-116; Log10 Concentration −5.0): 0.104 | Mean Optical Densities (HCT-116; Log10 Concentration −6.0): 0.452 | Mean Optical Densities (HCT-116; Log10 Concentration −7.0): 0.665 | Mean Optical Densities (HCT-116; Log10 Concentration −8.0): 0.751 | Mean Optical Densities (EKVX; Log10 Concentration −4.0): 0.193 | Mean Optical Densities (EKVX; Log10 Concentration −5.0): 0.156 | Mean Optical Densities (EKVX; Log10 Concentration −6.0): 0.786 | Mean Optical Densities (EKVX; Log10 Concentration −7.0): 0.860 | Mean Optical Densities (EKVX; Log10 Concentration −8.0): 0.891 | Mean Optical Densities (NCI-H460; Log10 Concentration −4.0): 0.213 | Mean Optical Densities (NCI-H460; Log10 Concentration −5.0): 0.173 | Mean Optical Densities (NCI-H460; Log10 Concentration −6.0): 0.830 | Mean Optical Densities (NCI-H460; Log10 Concentration −7.0): 1.499 | Mean Optical Densities (NCI-H460; Log10 Concentration −8.0): 1.799 | Mean Optical Densities (NCI-H23; Log10 Concentration −4.0): 0.156 | Mean Optical Densities (NCI-H23; Log10 Concentration −5.0): 0.097 | Mean Optical Densities (NCI-H23; Log10 Concentration −6.0): 1.255 | Mean Optical Densities (NCI-H23; Log10 Concentration −7.0): 1.673 | Mean Optical Densities (NCI-H23; Log10 Concentration −8.0): 1.672 | Mean Optical Densities (CCRF-CEM; Log10 Concentration −4.0): 0.194 | Mean Optical Densities (CCRF-CEM; Log10 Concentration −5.0): 0.168 | Mean Optical Densities (CCRF-CEM; Log10 Concentration −6.0): 0.523 | Mean Optical Densities (CCRF-CEM; Log10 Concentration −7.0): 0.946 | Mean Optical Densities (MCF7; Log10 Concentration −4.0): 0.255 | Mean Optical Densities (MCF7; Log10 Concentration −5.0): 0.196 | Mean Optical Densities (MCF7; Log10 Concentration −6.0): 0.982 | Mean Optical Densities (MCF7; Log10 Concentration −7.0): 1.541 | Mean Optical Densities (MCF7; Log10 Concentration −8.0): 1.566 | Mean Optical Densities (ACHN; Log10 Concentration −4.0): 0.313 | Mean Optical Densities (ACHN; Log10 Concentration −5.0): 0.150 | Mean Optical Densities (ACHN; Log10 Concentration −6.0): 0.829 | Mean Optical Densities (ACHN; Log10 Concentration −7.0): 1.037 | Mean Optical Densities (ACHN; Log10 Concentration −8.0): 0.985 | Mean Optical Densities (UO-31; Log10 Concentration −4.0): 0.285 | Mean Optical Densities (UO-31; Log10 Concentration −5.0): 0.161 | Mean Optical Densities (UO-31; Log10 Concentration −6.0): 1.356 | Mean Optical Densities (UO-31; Log10 Concentration −7.0): 1.563 | Mean Optical Densities (UO-31; Log10 Concentration −8.0): 1.572 | Mean Optical Densities (M14; Log10 Concentration −4.0): 0.256 | Mean Optical Densities (M14; Log10 Concentration −5.0): 0.211 | Mean Optical Densities (M14; Log10 Concentration −6.0): 0.916 | Mean Optical Densities (M14; Log10 Concentration −7.0): 0.974 | Mean Optical Densities (M14; Log10 Concentration −8.0): 0.975 | Mean Optical Densities (LOX IMVI; Log10 Concentration −4.0): 0.352 | Mean Optical Densities (LOX IMVI; Log10 Concentration −5.0): 0.176 | Mean Optical Densities (LOX IMVI; Log10 Concentration −6.0): 0.742 | Mean Optical Densities (LOX IMVI; Log10 Concentration −7.0): 0.974 | Mean Optical Densities (LOX IMVI; Log10 Concentration −8.0): 1.204 | Mean Optical Densities (SK-MEL-28; Log10 Concentration −4.0): 0.218 | Mean Optical Densities (SK-MEL-28; Log10 Concentration −5.0): 0.071 | Mean Optical Densities (SK-MEL-28; Log10 Concentration −6.0): 1.130 | Mean Optical Densities (SK-MEL-28; Log10 Concentration −7.0): 1.320 | Mean Optical Densities (SK-MEL-28; Log10 Concentration −8.0): 1.426
